In patent US8759300B2, “Polypeptides and methods of use” (The Research Foundation for the State University of New York, priority 2007, dated 2014):
Some results were stated once for a whole list of compounds, not compound by compound. No end group written: not given here.

Key:
[1] = test system: FN-null cells; test: FN-null cell assay, Cys-tagged peptides coupled to FNIII8-11 via PEGDVS; assay type: cell-based, mouse; conditions: peptide coupled to FNIII8-11; ±30 ng/ml PDGF-BB; 3 days
[2] = test system: FN-null cells; test: FN-null cell assay, peptides added directly to medium on FNIII8-11; assay type: cell-based, mouse; conditions: peptide added directly to media with or without PDGF-BB
Description: FIG. 6. FN-null fibroblast response to soluble, unconjugated P5 (SEQ ID NO:37). FN-null cells were cultured at 4,000 cells/well in 96 well plates precoated with 0.125 mM of FNIII8-11 in DMEM for 4 hrs, and then further incubated in DMEM+2% BSA with or without the indicated concentrations of Peptide 5 at 37° C. for 3 days. Cells were counted in three 10× fields in each of 4 wells (mean±SD, n−12).
Scrambled variants of peptides 1 and 5 had no activity in these assays.
Variants of peptide 5 derived from fibronectin were generated by removing one amino acid at a time from the N-terminus or C-terminus of Peptide 5 (Table 2). These peptides (P12-P24) were added directly to medium with or without PDGF-BB.

Sequence | FN null cell survival [1] | FN null cell survival and proliferation [2]
NGQTPIQRTIKPDVRSYTITGLQPGT [peptide 3] | supporting survival of FN null cells | but not
QLISIQQYGHQEVTRFDFTTTSTST [peptide 2] | supporting survival of FN null cells | but not
QPSHISKYILRWRPKNSVGRWKEAT [peptide 1] | supporting survival of FN null cells | –
QPSVGQQMIFEEHGFRRTTPPTTAT [peptide 4] | supporting survival of FN null cells | but not
